No constants are given. Whether binding was seen depends on the method and setting. Binding seen in cells or lysates may run through a third protein. Some binding calls cover weakened binding; strength is not graded here.

Protein sequences, listed by entry. Tags and fused reporters are not part of them.
UniProt P49407: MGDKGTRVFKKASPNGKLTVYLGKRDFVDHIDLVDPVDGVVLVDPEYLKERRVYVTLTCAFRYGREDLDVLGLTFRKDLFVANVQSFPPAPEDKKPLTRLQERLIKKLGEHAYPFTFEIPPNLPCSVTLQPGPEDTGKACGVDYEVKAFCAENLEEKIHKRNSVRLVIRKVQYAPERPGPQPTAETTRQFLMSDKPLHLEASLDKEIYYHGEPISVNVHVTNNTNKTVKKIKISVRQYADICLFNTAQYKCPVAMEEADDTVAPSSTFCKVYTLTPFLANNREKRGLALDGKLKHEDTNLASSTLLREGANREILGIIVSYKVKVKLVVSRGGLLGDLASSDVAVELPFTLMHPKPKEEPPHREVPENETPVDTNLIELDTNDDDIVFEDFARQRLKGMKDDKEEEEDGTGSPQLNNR
UniProt P29067: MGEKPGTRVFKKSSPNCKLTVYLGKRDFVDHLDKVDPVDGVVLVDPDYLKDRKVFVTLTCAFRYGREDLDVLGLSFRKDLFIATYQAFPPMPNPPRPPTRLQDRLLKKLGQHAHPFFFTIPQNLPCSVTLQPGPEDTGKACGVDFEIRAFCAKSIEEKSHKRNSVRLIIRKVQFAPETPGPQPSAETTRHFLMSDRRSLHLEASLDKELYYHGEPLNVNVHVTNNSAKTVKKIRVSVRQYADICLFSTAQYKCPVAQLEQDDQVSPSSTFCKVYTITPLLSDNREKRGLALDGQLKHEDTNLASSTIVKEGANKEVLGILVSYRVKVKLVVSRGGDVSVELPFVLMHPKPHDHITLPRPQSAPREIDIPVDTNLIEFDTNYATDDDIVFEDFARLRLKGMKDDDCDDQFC
UniProt P32121: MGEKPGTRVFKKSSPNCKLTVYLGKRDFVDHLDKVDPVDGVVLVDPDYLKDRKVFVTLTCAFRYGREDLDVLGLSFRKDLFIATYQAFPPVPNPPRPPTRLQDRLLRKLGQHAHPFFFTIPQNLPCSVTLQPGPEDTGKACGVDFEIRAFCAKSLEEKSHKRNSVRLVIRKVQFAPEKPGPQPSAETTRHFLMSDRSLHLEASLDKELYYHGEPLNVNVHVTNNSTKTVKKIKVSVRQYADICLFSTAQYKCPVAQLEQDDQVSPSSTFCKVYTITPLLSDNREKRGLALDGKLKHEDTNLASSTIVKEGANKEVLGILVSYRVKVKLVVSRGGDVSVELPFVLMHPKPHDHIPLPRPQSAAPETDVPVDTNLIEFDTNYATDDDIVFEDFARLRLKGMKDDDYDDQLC

Experiment [1] concerns the target T1, hGPR1-Venus (human) (UniProt P46091).
T1 sequence: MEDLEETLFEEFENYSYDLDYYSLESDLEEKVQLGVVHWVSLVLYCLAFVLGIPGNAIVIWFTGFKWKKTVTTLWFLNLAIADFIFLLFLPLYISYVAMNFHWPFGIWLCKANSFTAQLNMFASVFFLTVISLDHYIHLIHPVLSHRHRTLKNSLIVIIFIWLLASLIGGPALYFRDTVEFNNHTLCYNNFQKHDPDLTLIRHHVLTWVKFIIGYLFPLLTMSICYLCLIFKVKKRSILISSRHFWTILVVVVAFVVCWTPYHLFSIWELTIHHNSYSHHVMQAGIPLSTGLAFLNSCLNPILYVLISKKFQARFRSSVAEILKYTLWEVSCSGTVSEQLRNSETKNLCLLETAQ
Description: FRET or BRET; real-time BRET1 in living HEK293T cells co-expressing β-arrestin fused to RLuc (donor) and receptor fused to Venus (acceptor); after stimulation with 100 nM chemerin; 25 °C; 5 µM Enduren; Net BRET. In general terms: BRET reads energy transfer from a luciferase to a nearby fluorophore.

Experiment [2] has as its target T2, mGPR1-Venus (mouse) (UniProt Q8K087).
T2 sequence: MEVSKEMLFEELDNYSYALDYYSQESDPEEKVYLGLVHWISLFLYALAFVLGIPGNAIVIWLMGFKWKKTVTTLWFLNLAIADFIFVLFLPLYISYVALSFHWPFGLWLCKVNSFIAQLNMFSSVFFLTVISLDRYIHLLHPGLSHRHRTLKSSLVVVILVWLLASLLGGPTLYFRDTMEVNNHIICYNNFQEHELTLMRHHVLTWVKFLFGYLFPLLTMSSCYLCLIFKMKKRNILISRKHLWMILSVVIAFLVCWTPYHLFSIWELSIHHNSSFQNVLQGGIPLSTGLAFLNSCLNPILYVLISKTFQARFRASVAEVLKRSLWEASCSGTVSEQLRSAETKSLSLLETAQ
The description is as above.

Experiment [3] deals with T1, hGPR1-Venus (human). Description: FRET or BRET; BRET titration in HEK293T cells: constant amount of β-arrestin-RLuc, increasing amounts of receptor fused to Venus; no chemerin; BRETMax by GraphPad Prism.
The target of experiment [4] is T2, mGPR1-Venus (mouse). Described as above.
For experiment [5], the target named is T1, hGPR1-Venus (human). Briefly: FRET or BRET; real-time BRET1 in living HEK293T cells co-expressing β-arrestin fused to RLuc (donor) and receptor fused to Venus (acceptor); basal conditions, before chemerin; 25 °C; 5 µM Enduren; Net BRET.
The target of experiment [6] is T2, mGPR1-Venus (mouse). The description is as above.

Take “β-arrestin1-RLuc (from UniProt P49407 1-418)”: the binding result in the experiment with hGPR1-Venus (human) [1] is “binds”; with mGPR1-Venus (mouse) [2], “binds”; with hGPR1-Venus (human) [3], “binds weakly”; in the experiment with mGPR1-Venus (mouse) [4] it was “binds”; with hGPR1-Venus (human) [5] it was “binds weakly”; with mGPR1-Venus (mouse) [6] it was “binds”.
For “rat β-arrestin 2 (from UniProt P29067 1-410)”, the binding entry with hGPR1-Venus (human) [1] was “binds”; with mGPR1-Venus (mouse) [2], “binds”; with hGPR1-Venus (human) [5], “binds weakly”; in the experiment with mGPR1-Venus (mouse) [6], “binds”.
Turning to “β-arrestin2-RLuc (from UniProt P32121 1-409)”, the binding entry in the experiment with mGPR1-Venus (mouse) [2], with mGPR1-Venus (mouse) [4] and with mGPR1-Venus (mouse) [6] was “binds” throughout.

(Values after publication PMC8947326.)
